Values from PubChem BioAssay AID493246 (Drosophila RNAi Screening Center, 2011)

- Purpose: 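Genes fly cells need to grow and stay alive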 (primary screen)
- Cell system: Drosophila Kc and S2R+ cells
- Knock-down reagent: long dsRNA against Drosophila genes
- Detection: 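Raw, unnormalised count of remaining cells in each well; per-plate z-scores of cell number underlie the calls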
- Reading the numbers: Kc cell number and S2R+ cell number: higher = more cells remaining
- Call rule: 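Active when the per-plate z-score of cell number is 3 or more in the direction of fewer cells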
The deposit covers about 21,000 reagents; this is an unselected part of those that have a named target and a result. Of all reagents, 429 (2%) are marked active. 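Values are raw and not normalised between plates; calls rest on per-plate z-scores that were not deposited.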 Unmarked entries are inactive. Reagents against one gene are numbered here. Names joined by + are all predicted targets of the reagent. Not given: the amount of reagent, the time to read-out.

HDAC6 scored Kc cell number, rep 1 = 5.47e5; S2R+ cell number, rep 1 = 8.45e5. Cht6 #1 scored Kc cell number, rep 1 = 1.60e6; Kc cell number, rep 2 = 1.57e6; S2R+ cell number, rep 1 = 1.14e6; S2R+ cell number, rep 2 = 1.23e6. Cht6 #2 scored Kc cell number, rep 1 = 1.55e6; Kc cell number, rep 2 = 1.59e6; S2R+ cell number, rep 1 = 8.44e5; S2R+ cell number, rep 2 = 9.71e5. Cht6 #3 showed Kc cell number, rep 1 = 1.58e6; Kc cell number, rep 2 = 1.58e6; S2R+ cell number, rep 1 = 1.06e6; S2R+ cell number, rep 2 = 1.26e6. With knock-down of SMSr #1, the record shows Kc cell number, rep 1 = 1.49e6; Kc cell number, rep 2 = 1.53e6; S2R+ cell number, rep 1 = 1.26e6; S2R+ cell number, rep 2 = 1.21e6. After knock-down of SMSr #2, the record shows Kc cell number, rep 1 = 1.58e6; Kc cell number, rep 2 = 1.46e6; S2R+ cell number, rep 1 = 1.08e6; S2R+ cell number, rep 2 = 1.11e6.

After knock-down of Ip259 the results were Kc cell number, rep 1 = 1.19e6; Kc cell number, rep 2 = 1.33e6; S2R+ cell number, rep 1 = 7.90e5; S2R+ cell number, rep 2 = 8.56e5. With knock-down of CG4942, the record shows Kc cell number, rep 1 = 1.41e6; Kc cell number, rep 2 = 1.53e6; S2R+ cell number, rep 1 = 1.33e6; S2R+ cell number, rep 2 = 1.27e6. Silencing of PPP4R2r came out at: Kc cell number, rep 1 = 1.40e6; Kc cell number, rep 2 = 1.44e6; S2R+ cell number, rep 1 = 1.11e6; S2R+ cell number, rep 2 = 1.19e6. For CG31897 the deposit lists Kc cell number, rep 1 = 1.44e6; Kc cell number, rep 2 = 1.47e6; S2R+ cell number, rep 1 = 9.87e5; S2R+ cell number, rep 2 = 1.09e6. Depletion of CG30076 gave: Kc cell number, rep 1 = 1.53e6; Kc cell number, rep 2 = 1.58e6; S2R+ cell number, rep 1 = 1.08e6; S2R+ cell number, rep 2 = 1.24e6. For nullo, the entry reads Kc cell number, rep 1 = 1.60e6; Kc cell number, rep 2 = 1.65e6; S2R+ cell number, rep 1 = 1.12e6; S2R+ cell number, rep 2 = 1.25e6.

Knock-down of CG4744 came out at: Kc cell number, rep 1 = 1.35e6; Kc cell number, rep 2 = 1.45e6; S2R+ cell number, rep 1 = 1.10e6; S2R+ cell number, rep 2 = 1.09e6. Depletion of CG30020 came out at: Kc cell number, rep 1 = 1.87e6; Kc cell number, rep 2 = 1.92e6; S2R+ cell number, rep 1 = 1.28e6; S2R+ cell number, rep 2 = 1.55e6. mei-9 scored Kc cell number, rep 1 = 1.50e6; Kc cell number, rep 2 = 1.48e6; S2R+ cell number, rep 1 = 1.04e6; S2R+ cell number, rep 2 = 1.14e6. With knock-down of CG16926 the results were Kc cell number, rep 1 = 1.31e6; Kc cell number, rep 2 = 1.35e6; S2R+ cell number, rep 1 = 1.09e6; S2R+ cell number, rep 2 = 1.11e6. Polr2F gave Kc cell number, rep 1 = 1.63e6; Kc cell number, rep 2 = 1.74e6; S2R+ cell number, rep 1 = 9.12e5; S2R+ cell number, rep 2 = 9.87e5. After knock-down of Fpps the results were Kc cell number, rep 1 = 1.23e6; Kc cell number, rep 2 = 1.35e6; S2R+ cell number, rep 1 = 1.07e6; S2R+ cell number, rep 2 = 9.28e5.

Silencing of CAH7 came out at: Kc cell number, rep 1 = 1.61e6; Kc cell number, rep 2 = 1.60e6; S2R+ cell number, rep 1 = 1.27e6; S2R+ cell number, rep 2 = 1.45e6. Coq7 + shf showed Kc cell number, rep 1 = 1.58e6; Kc cell number, rep 2 = 1.51e6; S2R+ cell number, rep 1 = 1.10e6; S2R+ cell number, rep 2 = 1.18e6. Against AlaRS, the values are Kc cell number, rep 1 = 1.24e6; Kc cell number, rep 2 = 1.42e6; S2R+ cell number, rep 1 = 4.46e5; S2R+ cell number, rep 2 = 4.18e5.

Records above whose target name starts with S or s (2):
SMSr #1: Kc cell number, rep 1 = 1.49e6; Kc cell number, rep 2 = 1.53e6; S2R+ cell number, rep 1 = 1.26e6; S2R+ cell number, rep 2 = 1.21e6
SMSr #2: Kc cell number, rep 1 = 1.58e6; Kc cell number, rep 2 = 1.46e6; S2R+ cell number, rep 1 = 1.08e6; S2R+ cell number, rep 2 = 1.11e6
